Measurements from patent publication US9107814B2, “Micelle composition of polymer and passenger drug” (Wisconsin Alumni Research Foundation, priority 2005, dated 2015).
At least one compound was matched to its structure with a doubt left.

Tests used:
[1] = loading of rapamycin and geldanamycin into PEG-DSPE and PEG-PCL micelles; assay type: physicochemical; conditions: for weight % rapamycin in micelle composition: diffusion-evaporation; for drug incorporated in stable micelle solutions: polymeric micelles integrating tocopherol
Description: The final solvent to water ratio is between about 0.1 and about 5, preferably between about 0.5 and about 4, and more preferably about 2. The micelle solution should be delivered at a rate of between about 2 s/drop and about 60 s/drop, preferably between about 5 s/drop and about 30 s/drop, and more preferably between about 10 s/drop and about 20 s/drop.

[2] = tested on: human tumor xenograph models; conditions: broad range of human tumor xenograph models; read-out: typical IC50; cited from earlier work
[3] = tested on: MB-468; conditions: in MB-468; cited from earlier work
[4] = biological target: heat shock protein 90 (Hsp90); conditions: binding to Hsp90; cited from earlier work

| Structure (SMILES) | level loaded in PEG-PCL micelles ([1]; PEG-PCL micelles) [% w/w] | weight % rapamycin in micelle composition ([1]; 1:1 or 1:2 PEG-DSPE:tocopherol) [%] | weight % rapamycin in micelle composition ([1]; no tocopherol, rapamycin:micelle unimer ratio 2:1) | drug incorporated in stable micelle solutions [1] | IC50 [2] [nM] | IC50 [3] [nM] | Kd [4] [nM] |
| --- | --- | --- | --- | --- | --- | --- | --- |
| CO[C@H]1C[C@@H]2CC[C@@H](C)[C@@](O)(O2)C(=O)C(=O)N2CCCC[C@H]2C(=O)O[C@H]([C@H](C)C[C@@H]2CC[C@@H](O)[C@H](OC)C2)CC(=O)[C@H](C)/C=C(\C)[C@@H](O)[C@@H](OC)C(=O)[C@H](C)C[C@H](C)/C=C/C=C/C=C/1C [Rapamycin] | > 10 | > 25 | about 20% | up to 5 mg/ml | 10 | – | – |
| COC1=C2C[C@@H](C)C[C@H](OC)[C@H](O)[C@@H](C)/C=C(\C)[C@H](OC(N)=O)[C@@H](OC)/C=C\C=C(/C)C(=O)NC(=CC1=O)C2=O [Geldanamycin] | – | – | – | up to 500 μg/ml | – | 3 | 1200 |
